Data from article PMC6889490, “General structural features that regulate integrin affinity revealed by atypical αVβ8” (Nature Communications, 2019).
Entries after “also recorded” stand apart in the source; their conditions may differ.

How the values were obtained:
αVβ8 headpiece [1] = experiment: Hydrogen-deuterium exchange MS, αVβ8 headpiece; details: 21 °C
Method: Two microliters of αVβ6 and αVβ8 stock solutions (23 and 33 µM, respectively), either alone or mixed with 100 µM TGF-β1 ligand peptide, were diluted 15-fold (to 1.53 and 2.20 µM, αVβ6 and αVβ8, respectively, and 6.67 µM TGF-β1 ligand peptide) with labeling buffer (Supplementary Table 1) at 21 °C to initiate deuterium exchange. […] At time points from 10 s to 240 m, an aliquot was removed and an equal volume of quench buffer (Supplementary Table 1) was added to adjust the pH to 2.5. Each sample (46 pmol αVβ6 or 66 pmol αVβ8) was immediately subjected to liquid chromatography-mass spectrometry analysis as described in the next paragraphs and in our PRIDE submission (PXD014348). For binding experiments, protein and ligand were allowed to equilibrate for 20 min at 21 °C before deuterium labeling.
Deuterated and control samples were digested in solution with pepsin (10 mg/ml, Sigma P6887; Lot#SLBL1721V) for 5 min on ice, and then injected into an M-class Acquity UPLC with HDX technology (Waters)[32]. The cooling chamber of the UPLC system, which housed all the chromatographic elements was held at 0.0 ± 0.1 °C for the entire time of the measurements. The injected peptides were trapped and desalted for 3 min at 100 µl/min using a BEH C18 2.1 × 5 mm^2 column (Waters, 186003975) and then separated in 14 min by a 5–40% acetonitrile:water gradient at 40 µl/min. The separation column was a 1.0 × 100.0 mm^2 Acquity UPLC C18 BEH (Waters, 186002346) containing 1.7 µm particles. The back pressure averaged 8800 psi at 0.1 °C[33]. The error of determining the deuterium levels was ±0.15 Da in this experimental setup. To eliminate peptide carryover, a wash solution of 1.5 M GnHCl, 0.8% formic acid, and 4% acetonitrile was injected after each run.
Mass spectra were acquired using a Waters Synapt G2-Si HDMS^E mass spectrometer in ion mobility mode. A conventional electrospray source was used and the instrument was scanned over the range 100 to 1900m/z. The instrument configuration was the following: capillary was 3.2 kV, trap collision energy at 6 V, sampling cone at 35 V, source temperature of 80 °C, and desolvation temperature of 175 °C. All comparison experiments were done under identical experimental conditions such that deuterium levels were not corrected for back-exchange and are therefore reported as relative.
Peptides were identified using PLGS 3.0.1 (Waters, 720001408EN) using six replicates of undeuterated αVβ6 and six replicates of undeuterated αVβ8. […] The relative amount of deuterium in each peptide was determined by subtracting the centroid mass of the undeuterated form of each peptide from the deuteratered form, at each time point, for each condition. […]

αVβ8 headpiece [2] = experiment: Crystal soaking, ligand-induced residue movement, αVβ8; details: 1 mM peptide, 10 mM Mg2+, 2 mM Ca2+
αVβ6 headpiece = experiment: Hydrogen-deuterium exchange MS, αVβ6 headpiece; details: 21 °C
αVβ8-mut3 headpiece = experiment: Negative stain EM headpiece opening, αVβ8-mut3; details: 1 mM Mn2+/0.2 mM Ca2+
[3] = αV β-propeller, C-terminal half of region between Tyr-178 and Asp-218, 10 s to 4 h, triplicate

| Substance | effect of ligand binding on deuterium exchange (αVβ8 headpiece [1]; SDL2) | effect of ligand binding on deuterium exchange (αVβ8 headpiece [1]; SDL3) | effect of ligand binding on deuterium exchange (αVβ8 headpiece [1]; α1-helix, 10 s) | effect of ligand binding on deuterium exchange (αVβ8 headpiece [1]; [3]) | distance of S5 Cα from its position in fully open αIIbβ3 (αVβ8 headpiece [2]) | movement of β-MIDAS D/N8 equivalent Asn-119 on ligand soaking (αVβ8 headpiece [2]) | effect of ligand binding on deuterium exchange (αVβ6 headpiece; SDL2) | effect of ligand binding on deuterium exchange (αVβ6 headpiece; SDL3) | effect of ligand binding on deuterium exchange (αVβ6 headpiece; α1-helix, early time points) | effect of ligand binding on deuterium exchange (αVβ6 headpiece; [3]) | headpiece conformation when bound to pro-TGF-β1 (αVβ8-mut3 headpiece) |
| --- | --- | --- | --- | --- | --- | --- | --- | --- | --- | --- | --- |
| G^213RRGDLATIHG^223 [TGF-β1 ligand peptide] | greatly decreased exchange | slowed exchange | augmented at 10 s | slowed the exchange | ≤ 1.1 Å | 1.8 Å | greatly decreased exchange | slowed exchange | decreased at early time points | slowed the exchange |  |
| pro-TGF-β1: Human pro-TGFβ-1 with a R249A cleavage site mutation |  |  |  |  |  |  |  |  |  |  | remained closed; also recorded: neither mutant showed the open headpiece |
